These results are taken from the supplement of paper PMC9744312.

As a reminder, the cell viability is a read-out of living cells in per cent, often relative to untreated cells.

Where a name gives a salt, the structure may show the parent alone. The list shows a part of the results. This is a noisy data set.

The subject of the experiment is Peyronie's disease tunica albuginea primary fibroblasts. The experiment in a line: cell viability (DRAQ5 nuclear stain) relative to TGF-beta1-only control; higher = more viable cells. The conditions noted are these: 10 µM; TGF-beta1 10 ng/mL; 72 h.
Turning to `CC[N+](C)(CC)CCOC(=O)C(O)(c1ccccc1)c1ccccc1` [Methylbenactyzine Bromide], the cell viability came to 84.7%.
On to `C[C@@H]1[C@H](O)[C@@H](C)/C=C/C=C/CC/C=C/C=C/C=C/C=C/[C@H](O[C@H]2O[C@@H](C)[C@H](O)[C@@H](N)[C@H]2O)C[C@@H]2O[C@](O)(C[C@@H](O)[C@H](O)CC[C@@H](O)C[C@@H](O)C[C@@H](O)CC(=O)O[C@H]1C)C[C@H](O)[C@H]2C(=O)O` [Nystatin (Fungicidin)], for which the cell viability was determined as 99.1%.
For the molecule `CC(C)NCC(O)c1ccccc1Cl` (stereo not drawn) [Clorprenaline HCl], the cell viability is 90.2%.
Turning to `N[C@@H]1C[C@H]1c1ccccc1` [Tranylcypromine (2-PCPA) HCl], the cell viability turned out to be 85.8%.
The result for `[O-][n+]1ccccc1[S-].[O-][n+]1ccccc1[S-].[Zn+2]` [Zinc Pyrithione] reads 17.9%; that for `O=[N+]([O-])C(Br)(CO)CO` [Bronopol], 87.5%; that for `CN1[C@@H]2C[C@@H](OC(=O)[C@H](CO)c3ccccc3)C[C@H]1[C@@H]1O[C@@H]12` [Scopolamine HBr], 87.5%.
`CC(NC(C)(C)C)C(=O)c1cccc(Cl)c1` (stereo not drawn) [Amfebutamone (Bupropion) HCl]: the cell viability was 94.7%.
The result for `NC[C@H](CC(=O)O)c1ccc(Cl)cc1` [(R)-baclofen] reads 86.9%; that for `Cn1c(CCCC(=O)O)nc2cc(N(CCCl)CCCl)ccc21` [Bendamustine HCl], 92%; that for `CN[C@@H]1[C@@H](O)[C@@H](O[C@@H]2[C@@H](O)[C@H](O[C@H]3O[C@H](CN)CC[C@H]3N)[C@@H](N)C[C@H]2N)OC[C@]1(C)O.CN[C@@H]1[C@@H](O)[C@@H](O[C@@H]2[C@@H](O)[C@H](O[C@H]3O[C@H]([C@@H](C)N)CC[C@H]3N)[C@@H](N)C[C@H]2N)OC[C@]1(C)O.CN[C@@H]1[C@@H](O)[C@@H](O[C@@H]2[C@@H](O)[C@H](O[C@H]3O[C@H]([C@@H](C)NC)CC[C@H]3N)[C@@H](N)C[C@H]2N)OC[C@]1(C)O` [Gentamicin Sulfate], 98.8%.
With `CC(=O)O[C@H]1C[C@@H]2CC[C@@H]3[C@H](CC[C@@]4(C)[C@H]3C[C@H]([N+]3(C)CCCCC3)[C@@H]4OC(C)=O)[C@@]2(C)C[C@@H]1[N+]1(C)CCCCC1` [Pancuronium dibromide], the cell viability turned out to be 88.5%.
In the case of `c1ccc2c(c1)Nc1ccccc1S2` [Phenothiazine], the cell viability was 93.5%.
In the case of `C[C@]12CCC(=O)C=C1C=C[C@@H]1[C@@H]2CC[C@@]2(C)[C@H]1CC[C@@]2(O)CCC(=O)O` [Potassium Canrenoate], the cell viability worked out at 92%.
For `Cc1cccc(C)c1NC(=O)CN1CCCC1=O` [Nefiracetam], the cell viability is 97.8%.
The result for `Cc1cccc(Cc2c[nH]cn2)c1C` [Detomidine HCl] reads 91.1%; that for `CCCC[N+]1(C)[C@@H]2C[C@@H](OC(=O)[C@H](CO)c3ccccc3)C[C@H]1[C@@H]1O[C@@H]12` (stereo partly drawn) [Butylscopolamine Bromide], 93.7%; that for `CC(C)C(Br)C(=O)NC(N)=O` (stereo not drawn) [Bromisoval], 94.2%.
For the molecule `CNC1CC(N)C(O)C(OC2OC(CO)C(O)C3OC4(OC(C(N)CO)C(O)C(O)C4O)OC23)C1O` (stereo not drawn) [Hygromycin B], the cell viability came to 95%.
In the case of `C=CCN1CC[C@]23c4c5ccc(O)c4O[C@H]2C(=O)CC[C@@]3(O)[C@H]1C5` [Naloxone HCl] it was 96%; in that of `Cn1cc(C2=C(c3cn(C4CCN(Cc5ccccn5)CC4)c4ccccc34)C(=O)NC2=O)c2ccccc21`, 101%; in that of `NC(=O)c1cc(N2CC2)c([N+](=O)[O-])cc1[N+](=O)[O-]`, 87.4%.
The result for `CC(C)OC(=O)[C@H](C)N[P@](=O)(CO[C@H](C)Cn1cnc2c(N)ncnc21)Oc1ccccc1` [Tenofovir Alafenamide (GS-7340)] reads 73.8%; that for `CC(=O)O[C@H]1CC[C@@]2(C)C(=CC[C@@H]3[C@@H]2CC[C@]2(C)C(=O)CC[C@@H]32)C1` [Dehydroepiandrosterone acetate], 79.2%.
Turning to `CC(C)c1cccc(C(C)C)c1O` [Propofol], the cell viability came out at 94.5%.
Take `COc1cc2c(c(OC)c1OC)-c1ccc(OC)c(=O)cc1[C@@H](NC(C)=O)CC2` [Colchicine]: the cell viability came out at 75.8%.
`O=C(O)c1nn(Cc2ccc(Cl)cc2Cl)c2ccccc12` [Lonidamine]: the cell viability was 82%.
As for `Cc1cc(C(C#N)c2ccc(Cl)cc2)c(Cl)cc1NC(=O)c1cc(I)cc(I)c1O` (stereo not drawn) [Closantel Sodium], the cell viability was found to be 95.2%.
In the case of `Cc1cc(C(C#N)c2ccc(Cl)cc2)c(Cl)cc1NC(=O)c1cc(I)cc(I)c1O` (stereo not drawn) [Closantel] it was 87%.
`CCOC(=O)Nc1ccc(NCc2ccc(F)cc2)cc1N` [Retigabine]: the cell viability was 88.4%.
The result for `CCOC(=O)Nc1ccc(NCc2ccc(F)cc2)cc1N` [Retigabine 2HCl] reads 91.3%; that for `CC(O)(CS(=O)(=O)c1ccc(F)cc1)C(=O)Nc1ccc(C#N)c(C(F)(F)F)c1` (stereo not drawn) [Bicalutamide], 83.7%; that for `O=c1cccc2n1C[C@@H]1CNC[C@H]2C1` [Cytisine], 103%.
For `NCC1(CC(=O)O)CCCCC1` [Gabapentin HCl], the cell viability was found to be 97.9%.
For `NCC1(CC(=O)O)CCCCC1` [Gabapentin], the cell viability was 97.8%.
On to `Cc1ccc2c(c1)[C@]13CCCC[C@@H]1[C@H](C2)N(C)CC3` [Dimemorfan phosphate], for which the cell viability was 90.7%.
For `C=C1CC[C@@]2(O)[C@H]3Cc4ccc(O)c5c4[C@@]2(CCN3CC2CC2)[C@H]1O5` [Nalmefene HCl], the cell viability stood at 80.7%.
The result for `O=[N+]([O-])O[C@H]1CO[C@H]2[C@@H]1OC[C@H]2O[N+](=O)[O-]` [Isosorbide dinitrate] reads 97.5%.
